Assay results as given in the supplement of paper PMC10849652.
The other results are listed elsewhere or left out.

Chains of the proteins cited; added tags and fusions are not shown. Lines headed by an entry give the natural chain unless they say otherwise; changes in a name come on top.
UniProt Q96FV9: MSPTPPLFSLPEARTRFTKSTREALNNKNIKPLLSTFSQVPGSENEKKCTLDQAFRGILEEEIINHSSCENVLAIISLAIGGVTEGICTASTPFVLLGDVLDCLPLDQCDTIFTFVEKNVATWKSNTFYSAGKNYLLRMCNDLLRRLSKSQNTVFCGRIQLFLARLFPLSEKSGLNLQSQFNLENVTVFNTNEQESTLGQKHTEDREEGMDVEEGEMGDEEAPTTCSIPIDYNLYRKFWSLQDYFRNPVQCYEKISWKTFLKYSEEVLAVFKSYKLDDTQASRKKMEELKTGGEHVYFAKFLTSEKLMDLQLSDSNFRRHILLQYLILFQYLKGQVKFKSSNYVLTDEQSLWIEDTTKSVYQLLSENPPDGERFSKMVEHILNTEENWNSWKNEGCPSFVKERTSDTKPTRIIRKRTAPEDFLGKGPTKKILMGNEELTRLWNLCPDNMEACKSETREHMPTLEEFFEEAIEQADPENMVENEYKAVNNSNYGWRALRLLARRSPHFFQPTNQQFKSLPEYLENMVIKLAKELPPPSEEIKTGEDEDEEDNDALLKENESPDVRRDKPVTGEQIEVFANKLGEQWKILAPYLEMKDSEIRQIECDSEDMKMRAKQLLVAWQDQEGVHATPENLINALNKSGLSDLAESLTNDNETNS
UniProt Q9Y3A6: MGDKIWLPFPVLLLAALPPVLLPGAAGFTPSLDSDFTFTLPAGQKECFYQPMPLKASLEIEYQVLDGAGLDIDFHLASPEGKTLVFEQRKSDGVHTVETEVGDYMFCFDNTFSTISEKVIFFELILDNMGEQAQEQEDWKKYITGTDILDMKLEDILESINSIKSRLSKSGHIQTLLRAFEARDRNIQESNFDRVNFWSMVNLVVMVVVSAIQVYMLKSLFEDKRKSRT
UniProt Q9BSF4: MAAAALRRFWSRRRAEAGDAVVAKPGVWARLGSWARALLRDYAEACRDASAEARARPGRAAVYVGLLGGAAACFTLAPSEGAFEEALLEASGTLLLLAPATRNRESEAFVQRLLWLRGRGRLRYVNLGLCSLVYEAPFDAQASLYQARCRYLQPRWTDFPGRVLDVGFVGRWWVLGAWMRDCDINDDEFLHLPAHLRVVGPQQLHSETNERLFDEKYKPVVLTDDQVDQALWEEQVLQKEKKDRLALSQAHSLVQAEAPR
UniProt Q9Y5L4: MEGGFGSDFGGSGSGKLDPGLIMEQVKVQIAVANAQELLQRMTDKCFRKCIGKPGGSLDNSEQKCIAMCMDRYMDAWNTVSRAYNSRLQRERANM
UniProt O43493: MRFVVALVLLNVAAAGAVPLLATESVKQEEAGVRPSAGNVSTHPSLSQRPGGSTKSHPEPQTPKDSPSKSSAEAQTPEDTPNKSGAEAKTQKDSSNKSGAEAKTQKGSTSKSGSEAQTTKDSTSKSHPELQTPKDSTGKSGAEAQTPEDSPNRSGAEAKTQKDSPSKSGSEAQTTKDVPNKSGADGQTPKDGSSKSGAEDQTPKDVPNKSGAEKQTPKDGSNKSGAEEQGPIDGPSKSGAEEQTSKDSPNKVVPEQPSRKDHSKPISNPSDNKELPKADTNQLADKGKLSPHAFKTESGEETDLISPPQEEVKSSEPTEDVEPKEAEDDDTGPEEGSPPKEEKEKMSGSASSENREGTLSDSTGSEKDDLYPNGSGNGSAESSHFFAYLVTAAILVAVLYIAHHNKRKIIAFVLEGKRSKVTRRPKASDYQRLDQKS
UniProt Q9BVC6: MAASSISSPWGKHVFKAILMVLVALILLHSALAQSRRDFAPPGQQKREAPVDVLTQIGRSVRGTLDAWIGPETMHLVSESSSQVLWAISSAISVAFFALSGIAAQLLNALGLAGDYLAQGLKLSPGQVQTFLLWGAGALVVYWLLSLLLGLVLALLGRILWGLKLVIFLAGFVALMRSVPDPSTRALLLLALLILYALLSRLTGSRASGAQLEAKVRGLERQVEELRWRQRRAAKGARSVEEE
UniProt Q5TEJ8: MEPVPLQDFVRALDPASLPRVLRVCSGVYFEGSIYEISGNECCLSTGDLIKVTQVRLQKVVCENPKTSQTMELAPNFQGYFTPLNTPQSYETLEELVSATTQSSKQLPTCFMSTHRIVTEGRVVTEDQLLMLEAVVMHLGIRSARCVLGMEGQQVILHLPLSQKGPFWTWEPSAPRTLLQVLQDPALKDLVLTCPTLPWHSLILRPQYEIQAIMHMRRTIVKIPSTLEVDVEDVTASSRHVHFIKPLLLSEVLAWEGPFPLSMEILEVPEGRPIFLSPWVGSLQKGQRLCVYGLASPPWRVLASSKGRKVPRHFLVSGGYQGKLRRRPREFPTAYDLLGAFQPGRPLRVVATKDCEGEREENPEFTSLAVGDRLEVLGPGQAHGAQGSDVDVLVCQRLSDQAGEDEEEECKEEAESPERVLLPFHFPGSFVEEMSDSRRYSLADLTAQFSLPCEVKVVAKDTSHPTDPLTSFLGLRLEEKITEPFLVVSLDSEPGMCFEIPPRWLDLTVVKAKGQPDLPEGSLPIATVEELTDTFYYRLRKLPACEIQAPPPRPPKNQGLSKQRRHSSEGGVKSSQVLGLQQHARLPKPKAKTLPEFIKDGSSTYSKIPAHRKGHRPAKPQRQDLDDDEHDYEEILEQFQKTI
UniProt Q03167: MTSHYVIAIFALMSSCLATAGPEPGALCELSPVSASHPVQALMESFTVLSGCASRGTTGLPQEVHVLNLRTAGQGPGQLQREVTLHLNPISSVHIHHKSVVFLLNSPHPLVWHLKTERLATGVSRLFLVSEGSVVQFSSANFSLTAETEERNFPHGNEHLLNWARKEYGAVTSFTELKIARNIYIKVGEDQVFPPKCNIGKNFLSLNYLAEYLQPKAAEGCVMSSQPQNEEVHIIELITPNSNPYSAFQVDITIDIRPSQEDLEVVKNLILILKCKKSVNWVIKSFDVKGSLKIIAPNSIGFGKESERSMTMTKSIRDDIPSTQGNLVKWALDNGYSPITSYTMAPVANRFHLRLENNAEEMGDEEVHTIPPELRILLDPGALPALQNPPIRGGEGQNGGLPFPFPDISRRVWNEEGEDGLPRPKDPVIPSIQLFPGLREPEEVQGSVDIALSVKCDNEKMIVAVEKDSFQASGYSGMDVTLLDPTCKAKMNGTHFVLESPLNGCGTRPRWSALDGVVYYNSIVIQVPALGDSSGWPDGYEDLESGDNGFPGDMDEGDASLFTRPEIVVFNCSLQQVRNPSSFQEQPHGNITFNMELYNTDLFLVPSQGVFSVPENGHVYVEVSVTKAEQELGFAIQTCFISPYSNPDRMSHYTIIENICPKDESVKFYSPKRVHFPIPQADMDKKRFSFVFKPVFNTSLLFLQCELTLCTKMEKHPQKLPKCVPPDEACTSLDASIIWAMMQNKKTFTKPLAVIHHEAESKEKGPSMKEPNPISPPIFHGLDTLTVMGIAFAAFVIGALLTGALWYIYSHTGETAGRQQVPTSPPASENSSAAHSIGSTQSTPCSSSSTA
UniProt Q9Y2W1: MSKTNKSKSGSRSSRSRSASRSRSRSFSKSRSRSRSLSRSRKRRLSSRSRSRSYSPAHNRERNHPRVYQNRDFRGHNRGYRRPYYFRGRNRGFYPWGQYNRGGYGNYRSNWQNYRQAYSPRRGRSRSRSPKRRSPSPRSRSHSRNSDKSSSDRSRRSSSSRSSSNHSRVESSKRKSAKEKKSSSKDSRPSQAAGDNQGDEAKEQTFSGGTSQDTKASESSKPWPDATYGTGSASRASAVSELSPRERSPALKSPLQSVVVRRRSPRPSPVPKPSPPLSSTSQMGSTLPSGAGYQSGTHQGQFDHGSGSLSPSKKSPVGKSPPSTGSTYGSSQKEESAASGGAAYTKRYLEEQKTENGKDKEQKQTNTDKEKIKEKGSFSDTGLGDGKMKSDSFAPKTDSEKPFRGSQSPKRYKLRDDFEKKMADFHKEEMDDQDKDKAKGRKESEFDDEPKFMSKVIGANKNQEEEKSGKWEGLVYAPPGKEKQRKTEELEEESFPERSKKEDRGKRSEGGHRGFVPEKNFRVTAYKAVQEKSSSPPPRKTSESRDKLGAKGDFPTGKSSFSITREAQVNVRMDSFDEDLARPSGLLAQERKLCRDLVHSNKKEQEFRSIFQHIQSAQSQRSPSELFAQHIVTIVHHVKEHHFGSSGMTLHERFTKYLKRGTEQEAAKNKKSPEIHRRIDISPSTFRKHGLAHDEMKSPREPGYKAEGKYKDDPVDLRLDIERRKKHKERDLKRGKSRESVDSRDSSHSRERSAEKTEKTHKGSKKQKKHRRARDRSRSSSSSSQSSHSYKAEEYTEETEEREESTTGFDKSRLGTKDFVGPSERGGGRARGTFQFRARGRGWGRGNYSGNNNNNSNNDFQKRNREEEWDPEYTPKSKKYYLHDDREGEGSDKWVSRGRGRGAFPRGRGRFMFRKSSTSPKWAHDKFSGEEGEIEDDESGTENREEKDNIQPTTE
UniProt Q8NI27: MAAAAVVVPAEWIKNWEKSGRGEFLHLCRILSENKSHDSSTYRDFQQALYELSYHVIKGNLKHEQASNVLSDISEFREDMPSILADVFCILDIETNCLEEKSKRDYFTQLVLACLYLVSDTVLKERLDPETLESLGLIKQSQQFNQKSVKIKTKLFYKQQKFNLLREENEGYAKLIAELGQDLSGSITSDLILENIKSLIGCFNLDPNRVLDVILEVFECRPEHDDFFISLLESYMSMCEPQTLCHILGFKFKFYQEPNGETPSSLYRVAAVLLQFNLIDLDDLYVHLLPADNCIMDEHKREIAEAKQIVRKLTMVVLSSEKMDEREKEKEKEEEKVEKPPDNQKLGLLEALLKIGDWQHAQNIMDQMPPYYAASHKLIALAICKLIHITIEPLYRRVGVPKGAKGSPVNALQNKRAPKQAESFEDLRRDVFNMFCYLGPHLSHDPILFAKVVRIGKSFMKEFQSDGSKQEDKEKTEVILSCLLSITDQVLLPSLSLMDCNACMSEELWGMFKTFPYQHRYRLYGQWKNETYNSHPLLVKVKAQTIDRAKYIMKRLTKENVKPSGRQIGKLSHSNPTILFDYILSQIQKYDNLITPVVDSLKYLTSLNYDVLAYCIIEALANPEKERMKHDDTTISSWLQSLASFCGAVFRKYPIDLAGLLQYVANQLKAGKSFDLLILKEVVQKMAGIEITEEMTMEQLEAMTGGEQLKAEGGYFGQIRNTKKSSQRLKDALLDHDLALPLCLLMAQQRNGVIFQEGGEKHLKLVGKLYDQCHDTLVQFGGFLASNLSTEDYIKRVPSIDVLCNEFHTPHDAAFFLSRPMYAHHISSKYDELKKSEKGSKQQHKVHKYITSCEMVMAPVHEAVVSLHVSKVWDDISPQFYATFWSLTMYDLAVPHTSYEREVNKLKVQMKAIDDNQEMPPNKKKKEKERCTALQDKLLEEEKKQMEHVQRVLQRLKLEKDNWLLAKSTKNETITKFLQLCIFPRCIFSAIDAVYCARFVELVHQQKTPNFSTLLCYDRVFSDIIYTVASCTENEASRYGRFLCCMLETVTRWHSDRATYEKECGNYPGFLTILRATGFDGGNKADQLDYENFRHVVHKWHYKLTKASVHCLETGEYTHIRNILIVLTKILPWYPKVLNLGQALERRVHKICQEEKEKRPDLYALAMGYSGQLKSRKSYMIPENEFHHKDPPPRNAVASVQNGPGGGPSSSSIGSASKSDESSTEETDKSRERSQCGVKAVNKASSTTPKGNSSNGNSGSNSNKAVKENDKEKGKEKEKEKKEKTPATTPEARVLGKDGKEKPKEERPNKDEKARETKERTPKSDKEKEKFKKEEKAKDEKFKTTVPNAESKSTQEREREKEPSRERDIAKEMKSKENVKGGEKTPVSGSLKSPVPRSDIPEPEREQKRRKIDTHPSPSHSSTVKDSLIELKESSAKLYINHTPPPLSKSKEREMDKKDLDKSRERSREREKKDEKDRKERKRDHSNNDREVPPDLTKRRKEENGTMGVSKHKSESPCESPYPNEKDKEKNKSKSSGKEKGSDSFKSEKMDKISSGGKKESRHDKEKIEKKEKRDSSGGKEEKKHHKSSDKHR
UniProt Q9BU02: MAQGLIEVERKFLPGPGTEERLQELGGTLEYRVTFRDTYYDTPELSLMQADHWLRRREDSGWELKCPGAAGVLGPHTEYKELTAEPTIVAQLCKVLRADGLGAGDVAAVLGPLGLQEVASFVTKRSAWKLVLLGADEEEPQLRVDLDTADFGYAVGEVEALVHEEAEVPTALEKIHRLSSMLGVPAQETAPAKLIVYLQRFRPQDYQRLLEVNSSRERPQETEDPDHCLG
UniProt O00142: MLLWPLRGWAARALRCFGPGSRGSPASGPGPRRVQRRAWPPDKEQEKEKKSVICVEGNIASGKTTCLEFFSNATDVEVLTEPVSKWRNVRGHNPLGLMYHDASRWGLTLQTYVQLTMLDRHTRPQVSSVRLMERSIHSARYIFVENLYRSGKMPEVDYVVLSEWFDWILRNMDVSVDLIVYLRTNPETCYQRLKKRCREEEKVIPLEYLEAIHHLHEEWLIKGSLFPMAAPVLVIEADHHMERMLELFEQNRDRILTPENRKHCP

Key:
Experiment in all cases: log2 fold change, soluble protein after heating vs DMSO (PISA); higher = thermal stabilisation; K562 lysate, 10 uM; active = over 0.2 and 3.5 SD of the protein, either way, in both replicates (recomputed)
nilotinib = compound: Cc1cn(-c2cc(NC(=O)c3ccc(C)c(Nc4nccc(-c5cccnc5)n4)c3)cc(C(F)(F)F)c2)cn1 [nilotinib]
How it was run: (§1)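 Thermal stability, expressed as log-two fold change relative to solvent controls, is given from duplicates. Crude K562 extract in PBS pH 7.4 with 1 mM MgCl2, at 1 mg/mL protein, was treated with 10 μM compound for 30 min and heated in aliquots for 3 min across 48°C-58°C. After pooling, adjustment to 0.5% NP-40 at 4°C and centrifugation at 21,000xg for 90 min, supernatant protein was measured by TMTpro 16plex LC-MS/MS with channel sums equalised.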

[1] = compound: Cc1nc(Nc2n[nH]c3c2CN(C(=O)N[C@H](CN(C)C)c2ccccc2)C3(C)C)c2sccc2n1
How it was run: as §1

dasatinib = compound: Cc1nc(Nc2ncc(C(=O)Nc3c(C)cccc3Cl)s2)cc(N2CCN(CCO)CC2)n1 [dasatinib]
How it was run: as §1

[2] = compound: Cc1ncc(-c2ccnc(Nc3ccc(S(C)(=O)=O)cc3)n2)n1C(C)C
How it was run: as §1

[3] = compound: Cn1cc(-c2ccc3c(c2)CCN3C(=O)Cc2cccc(C(F)(F)F)c2)c2c(N)ncnc21
How it was run: as §1

quisinostat = compound: Cn1cc(CNCC2CCN(c3ncc(C(=O)NO)cn3)CC2)c2ccccc21 [quisinostat]
How it was run: as §1

tipifarnib = compound: Cn1cncc1[C@@](N)(c1ccc(Cl)cc1)c1ccc2c(c1)c(-c1cccc(Cl)c1)cc(=O)n2C [tipifarnib]
How it was run: as §1

[4] = compound: NC(=O)Nc1cc(-c2cccc(F)c2)sc1C(=O)N[C@H]1CCCNC1
How it was run: as §1

[5] = compound: NC(=O)c1cnc(N[C@@H]2CCCC[C@@H]2N)nc1Nc1cccc(-n2nccn2)c1
How it was run: as §1

[6] = compound: NC1(c2ccc(-c3nc4ccn5c(=O)[nH]nc5c4cc3-c3ccccc3)cc2)CCC1
How it was run: as §1

Measured: log2 fold change

TMCO6 isoform 2 (UniProt Q96DC7)
inactive: nilotinib 0.061 | [1] 0.044 | dasatinib -0.064 | [2] -0.11 | [3] 0.003 | quisinostat -0.046 | tipifarnib -0.003 | [4] 0.04 | [5] 0.05 | [6] -0.045

THOC1 (UniProt Q96FV9)
inactive: nilotinib 0.016 | [1] 0.004 | dasatinib -0.015 | [2] 0.03 | [3] 0.008 | quisinostat -0.036 | tipifarnib -0.003 | [4] -0.004 | [5] -0.017 | [6] 0.033

TMC6 (UniProt Q7Z403)
inactive: nilotinib 0.051 | [1] -0.072 | [2] -0.019 | quisinostat -0.085 | tipifarnib 0.09 | [4] 0.036 | [5] -0.153 | [6] 0.017

THEM4 (UniProt Q5T1C6)
inactive: nilotinib -0.002 | [1] 0.032 | dasatinib 0.052 | [2] -0.107 | [3] 0.084 | quisinostat -0.067 | tipifarnib 0.022 | [4] 0.014 | [5] -0.009 | [6] -0.011

TMEM135 (UniProt Q86UB9)
inactive: nilotinib 0.009 | [1] 0.007 | dasatinib 0.095 | [2] -0.085 | [3] 0.01 | quisinostat 0.034 | tipifarnib -0.096 | [4] 0.008 | [5] 0.014 | [6] -0.04

TMEM167B (UniProt Q9NRX6)
inactive: nilotinib 0.006 | [1] 0.031 | [2] 0.014 | quisinostat -0.016 | tipifarnib -0.013 | [4] 0.027 | [5] 0.005 | [6] -0.019

TIMM44 (UniProt O43615)
inactive: nilotinib 0.082 | [1] -0.011 | dasatinib -0.087 | [2] 0.023 | [3] -0.028 | quisinostat 0.003 | tipifarnib -0.108 | [4] -0.058 | [5] 0 | [6] -0.031

TICAM1 (UniProt Q8IUC6)
inactive: nilotinib 0.069 | [1] 0.016 | dasatinib 0.003 | [2] -0.047 | [3] -0.252 | quisinostat -0.044 | tipifarnib -0.014 | [4] 0.076 | [5] 0.031 | [6] 0.191

TMED5 (UniProt Q9Y3A6)
inactive: nilotinib 0.012 | [1] -0.007 | dasatinib -0.063 | [2] 0.014 | [3] -0.013 | quisinostat 0.131 | tipifarnib -0.034 | [4] 0 | [5] 0.039 | [6] 0.006

TIMM29 (UniProt Q9BSF4)
inactive: nilotinib -0.03 | [1] 0.005 | dasatinib -0.008 | [2] 0.015 | [3] -0.044 | quisinostat 0.069 | tipifarnib 0.018 | [4] -0.029 | [5] 0 | [6] -0.018

TIMM13 (UniProt Q9Y5L4)
inactive: nilotinib -0.004 | [1] 0.056 | dasatinib -0.042 | [2] 0.006 | [3] 0.009 | quisinostat 0.008 | tipifarnib -0.002 | [4] -0.021 | [5] -0.012 | [6] 0.028

TMEM101 (UniProt Q96IK0)
inactive: nilotinib -0.044 | [1] 0.002 | dasatinib -0.07 | [2] -0.057 | [3] -0.134 | quisinostat 0.124 | tipifarnib -0.019 | [4] -0.035 | [5] -0.043 | [6] -0.059

TGOLN2 isoform 7 (UniProt O43493)
inactive: nilotinib -0.059 | [1] -0.004 | dasatinib 0.023 | [2] 0.021 | [3] 0.033 | quisinostat -0.029 | tipifarnib -0.087 | [4] 0.014 | [5] 0.019 | [6] 0.008

TMEM109 (UniProt Q9BVC6)
inactive: nilotinib -0.016 | [1] 0.002 | dasatinib 0.01 | [2] 0.018 | [3] -0.024 | quisinostat 0.005 | tipifarnib -0.002 | [4] -0.013 | [5] -0.006 | [6] -0.033

THEMIS2 (UniProt Q5TEJ8)
inactive: nilotinib -0.096 | [1] 0.06 | dasatinib -0.092 | [2] -0.144 | [3] 0.059 | quisinostat 0.03 | tipifarnib -0.039 | [4] 0.051 | [5] 0.095 | [6] 0.019

TJP1 isoform 2 (UniProt Q07157)
inactive: nilotinib -0.003 | [1] 0.004 | dasatinib 0.036 | [2] 0.006 | [3] -0.013 | quisinostat -0.011 | tipifarnib -0.005 | [4] -0.019 | [5] 0.022 | [6] -0.041

TJP1 (UniProt G3V1L9)
inactive: nilotinib 0.093 | [1] 0.051 | dasatinib 0.083 | [2] 0.11 | [3] -0.139 | quisinostat 0.137 | tipifarnib -0.078 | [4] 0.022 | [6] -0.08

TK1 (UniProt K7ERV3)
inactive: nilotinib -0.024 | [1] -0.134 | dasatinib -0.114 | [2] 0.086 | [3] 0.02 | quisinostat -0.059 | tipifarnib 0.059 | [4] 0.122 | [6] -0.016

TLE4 isoform 3 (UniProt Q04727)
inactive: nilotinib -0.004 | [1] 0.037 | dasatinib -0.042 | [2] -0.029 | [3] 0.03 | quisinostat 0.02 | tipifarnib 0.006 | [4] -0.045 | [5] -0.039 | [6] -0.013

THUMPD2 (UniProt Q9BTF0)
inactive: nilotinib -0.017 | [1] -0.021 | dasatinib -0.006 | [2] 0.034 | [3] 0.095 | quisinostat -0.041 | tipifarnib 0.023 | [4] 0.032 | [5] 0.047 | [6] -0.011

TMED10 (UniProt P49755)
inactive: nilotinib 0.016 | [1] -0.027 | dasatinib 0.039 | [2] -0.007 | [3] 0.025 | quisinostat 0.029 | tipifarnib -0.021 | [4] 0.006 | [5] -0.017 | [6] 0.011

TKFC (UniProt Q3LXA3)
inactive: nilotinib -0.006 | [1] 0.003 | dasatinib 0.006 | [2] 0.027 | [3] -0.025 | quisinostat 0.016 | tipifarnib 0.015 | [4] -0.004 | [5] -0.023 | [6] -0.001

TGFBR3 (UniProt Q03167)
inactive: nilotinib -0.027 | [1] -0.011 | dasatinib 0.015 | [2] -0.01 | [3] 0.006 | quisinostat -0.006 | tipifarnib 0.024 | [4] -0.008 | [5] -0.014 | [6] 0.005

THRAP3 (UniProt Q9Y2W1)
inactive: nilotinib 0 | [1] -0.027 | dasatinib -0.025 | [2] -0.003 | [3] 0.033 | quisinostat -0.025 | tipifarnib 0.045 | [4] -0.01 | [5] 0.011 | [6] 0.036

TMEM147 (UniProt Q9BVK8)
inactive: nilotinib -0.005 | [1] 0.031 | [2] 0.04 | quisinostat -0.245 | tipifarnib -0.162 | [4] 0.005 | [5] 0.031 | [6] 0.008

THOC2 (UniProt Q8NI27)
inactive: nilotinib 0.02 | [1] -0.019 | dasatinib -0.044 | [2] -0.006 | [3] 0.01 | quisinostat -0.046 | tipifarnib -0.02 | [4] 0.03 | [5] 0.003 | [6] -0.006

THTPA (UniProt Q9BU02)
inactive: nilotinib 0.077 | [1] -0.012 | dasatinib 0.044 | [2] 0.052 | [3] -0.023 | quisinostat 0.067 | tipifarnib -0.053 | [4] -0.031 | [5] -0.059 | [6] 0.009

TMEM161B (UniProt Q8NDZ6)
inactive: [1] -0.014 | [2] 0.053 | quisinostat -0.07 | tipifarnib -0.117 | [4] 0.046 | [5] -0.005 | [6] -0.064
active: nilotinib 0.419

TIFA (UniProt Q96CG3)
inactive: quisinostat -0.099 | [4] -0.036 | [6] -0.034

TK2 isoform 6 (UniProt O00142)
inactive: dasatinib -0.083 | [3] 0.014 | quisinostat 0.035 | [4] -0.097 | [5] 0.061 | [6] -0.058

TMC7 (UniProt Q7Z402)
inactive: [6] 0.189

TMEM184B (UniProt Q9Y519)
inactive: dasatinib -0.083 | [3] -0.112 | quisinostat -0.006 | [4] 0.013
